Test results: PubChem BioAssay AID268 (DTP/NCI, 2004)
The list does not hold the whole screen: it is rich in T/C values a quarter to a half above the control, in often repeated tests (any T/C) and in doses without a T/C. Other doses and runs of a compound stand elsewhere. T/C is the treated group as % of the vehicle group. Schedules are NCI's codes, taken here to give the interval after Q, in days (D) or hours (H), and the number of doses after X. Some entries hold several experiments; the results are listed from low to high. Brackets with × say how often a value occurs here. Some T/C values are followed by the survivors on the day toxicity was checked, most often the fifth; without a count, all were alive then. Some doses have a count of surviving animals in place of a T/C: the source holds a T/C of zero for them, seemingly a mark for toxic or unscored doses. Counts of survivors are from the toxicity check (mostly the fifth day) where no day follows; animals may have died later.

Test system: CD2F1 mice, P1798 lymphosarcoma sc, tumor weight T/C
Experiment: NCI In Vivo Anticancer Drug Screen. Data for tumor model P1798 Lymphosarcoma (subcutaneous) in CD2F1 (CDF1) mice
Settings: T/C endpoint: mean tumor weight, higher T/C = larger tumour
Procedure: The antitumor activity of compounds was measured in mice bearing transplantable tumors. Survival or tumor size were measured and the results are expressed as the measurement made in the treated group (T) divided by the measurement made in the vehicle treated control group (C). The tumor model used in this assay is P1798 Lymphosarcoma (subcutaneous) in CD2F1 (CDF1) mice

[1] = dose: 120.0 mg/kg/injection, schedule: Q01DX010 (ip), vehicle: saline
[2] = dose: 400.0 mg/kg/injection, schedule: Q01DX010 (ip), vehicle: saline
[3] = dose: 100.0 mg/kg/injection, schedule: Q01DX010 (ip), vehicle: saline
[4] = dose: 200.0 mg/kg/injection, schedule: Q01DX010 (ip), vehicle: saline
[5] = dose: 50.0 mg/kg/injection, schedule: Q01DX010 (sc), vehicle: steroid suspending solution, evaluated on day 12
[6] = dose: 125.0 mg/kg/injection, schedule: Q01DX010 (ip), vehicle: saline, evaluated on day 12
[7] = dose: 100.0 mg/kg/injection, schedule: Q01DX010 (sc), vehicle: steroid suspending solution
[8] = dose: 1.0 mg/kg/injection, schedule: Q01DX010 (ip), vehicle: saline

SMILES: O=C1NC2C(NC(=O)N2Cl)N1Cl (configuration not stated)
- survivor count (dose: 160.0 mg/kg/injection, schedule: Q01DX010 (ip), vehicle: saline): 0 of 6

SMILES: N#CCSc1ncnc2nc[nH]c12
- T/C (dose: 15.0 mg/kg/injection, schedule: Q01DX010 (ip), vehicle: saline, evaluated on day 12): 135 % of control
- survivor count [1]: 3 of 6

SMILES: Cc1nc(N2CC2)nc(N2CC2)c1[N+](=O)[O-]
- survivor count (dose: 10.0 mg/kg/injection, schedule: Q01DX010 (ip), vehicle: saline): 0 of 6 and 1 of 6

SMILES: N#CCCCCCNC(=O)CCCCC(=O)NCCCCCC#N
- T/C (dose: 50.0 mg/kg/injection, schedule: Q01DX010 (ip), vehicle: saline, evaluated on day 12): 126 % of control

SMILES: CN(C)N=Nc1cccc([N+](=O)[O-])c1
- survivor count (dose: 178.0 mg/kg/injection, schedule: Q01DX011 (ip), vehicle: saline): 0 of 6
- survivor count (dose: 267.0 mg/kg/injection, schedule: Q01DX011 (ip), vehicle: saline): 0 of 6
- survivor count [2]: 4 of 7
- survivor count (dose: 400.0 mg/kg/injection, schedule: Q01DX011 (ip), vehicle: saline): 0 of 6
- survivor count (dose: 600.0 mg/kg/injection, schedule: Q01DX010 (ip), vehicle: saline): 2 of 7
- survivor count (dose: 600.0 mg/kg/injection, schedule: Q01DX011 (ip), vehicle: saline): 0 of 6

SMILES: NCCCCCCNCCCCCCN
- survivor count [3]: 0 of 6
- survivor count [4]: 0 of 6

SMILES: Nc1ncnc2[nH]ncc12
- survivor count (dose: 12.0 mg/kg/injection, schedule: Q01DX010 (ip), vehicle: saline): 0 of 6

SMILES: CC(=O)O[C@H]1CC[C@H]2[C@@H]3CC[C@H]4CCCC[C@]4(C)[C@H]3CC[C@]12C
- T/C [5]: 137 % of control

SMILES: CCCSc1ncnc2nc[nH]c12
- T/C [6]: 147 % of control
- survivor count (dose: 250.0 mg/kg/injection, schedule: Q01DX010 (ip), vehicle: saline): 0 of 6

SMILES: c1ccc(CNc2ncnc3[nH]ncc23)cc1
- T/C (dose: 16.0 mg/kg/injection, schedule: Q01DX010 (ip), vehicle: saline, evaluated on day 12): 141 % of control
- survivor count (dose: 32.0 mg/kg/injection, schedule: Q01DX010 (ip), vehicle: saline): 1 of 6
- survivor count (dose: 64.0 mg/kg/injection, schedule: Q01DX010 (ip), vehicle: saline): 1 of 6

SMILES: COc1cc(C[C@H]2c3cc(OC)c(OC)cc3CCN2C)c(Oc2cc3c(cc2OC)-c2c(OC)c(OC)cc4c2[C@H](C3)N(C)CC4)cc1OC
- survivor count (dose: 200.0 mg/kg/injection, schedule: Q01DX011 (ip), vehicle: carboxymethylcellulose (CMC)): 0 of 4

SMILES: O=c1cn[nH]c(=O)[nH]1
- T/C [6]: 131 % of control
- T/C (dose: 500.0 mg/kg/injection, schedule: Q01DX010 (ip), vehicle: saline, evaluated on day 12): 137 % of control

SMILES: Cc1cc(N(CCCl)CCCl)ccc1N=Nc1ccccc1C(=O)O
- survivor count (dose: 40.0 mg/kg/injection, schedule: Q01DX010 (ip), vehicle: saline): 0 of 6

SMILES: C[C@]12CCC(=O)C=C1CC[C@@H]1[C@@H]2[C@@H](O)C[C@@]2(C)[C@H]1CC[C@]2(O)C(=O)CO
- survivor count [7]: 2 of 6 and 3 of 6

SMILES: CC(=O)OCC(=O)[C@@]1(O)CC[C@H]2[C@@H]3CCC4=CC(=O)[C@H](C)C[C@]4(C)[C@@]3(F)[C@@H](O)C[C@@]21C
- survivor count (dose: 50.0 mg/kg/injection, schedule: Q01DX010 (sc), vehicle: steroid suspending solution): 1 of 6 and 3 of 6
- survivor count [7]: 0 of 6

SMILES: CC(=O)OC(C)(C)/C=C/C(=O)[C@](C)(O)[C@H]1[C@H](O)C[C@@]2(C)[C@@H]3CC=C4[C@@H](C[C@H](O)C(=O)C4(C)C)[C@]3(CO)C(=O)C[C@]12C
- T/C (dose: 0.57 mg/kg/injection, schedule: Q01DX010 (ip), vehicle: saline, evaluated on day 12): 141 % of control [5 of 6 alive]

SMILES: CN(C)CCCN1c2ccccc2Sc2ccc(C(F)(F)F)cc21
- survivor count (dose: 50.0 mg/kg/injection, schedule: Q01DX010 (ip), vehicle: saline): 0 of 6
- survivor count [3]: 0 of 6

SMILES: CC1CC(C)OS(=O)O1 (configuration not stated)
- survivor count [3]: 2 of 6
- survivor count (dose: 150.0 mg/kg/injection, schedule: Q01DX010 (ip), vehicle: saline): 0 of 6

SMILES: O=C(NCCCCC(NC(=O)OCc1ccccc1)C(=O)NCCCCCCNCCCCCCNC(=O)C(CCCCNC(=O)OCc1ccccc1)NC(=O)OCc1ccccc1)OCc1ccccc1 (configuration not stated)
- survivor count [2]: 0 of 6

SMILES: c1ccc(CSc2ncnc3nc[nH]c23)cc1
- survivor count [3]: 2 of 6

SMILES: COC1C(OC(=O)/C=C/C=C/C=C/C=C/C(=O)O)CCC2(CO2)C1C1(C)OC1CC=C(C)C (configuration not stated)
- survivor count [4]: 2 of 6

SMILES: CN(C)c1ccc(/C=C/c2ccnc3ccccc23)cc1
- survivor count (dose: 80.0 mg/kg/injection, schedule: Q01DX010 (ip), vehicle: saline): 2 of 6

SMILES: COC1=C(N)C(=O)c2nc(-c3nc(C(=O)O)c(C)c(-c4ccc(OC)c(OC)c4O)c3N)ccc2C1=O
- survivor count (dose: 0.2 mg/kg/injection, schedule: Q01DX010 (ip), vehicle: other): 3 of 6
- survivor count (dose: 0.3 mg/kg/injection, schedule: Q01DX010 (ip), vehicle: saline): 1 of 6
- survivor count (dose: 0.45 mg/kg/injection, schedule: Q01DX010 (ip), vehicle: saline): 0 of 6
- survivor count (dose: 0.66 mg/kg/injection, schedule: Q01DX010 (ip), vehicle: saline): 0 of 6

SMILES: COc1ccc2c(c1OC)C(=O)O[C@@H]2[C@H]1c2c(cc3c(c2OC)OCO3)CCN1C
- survivor count (dose: 125.0 mg/kg/injection, schedule: Q01DX010 (ip), vehicle: saline): 2 of 6
- survivor count (dose: 500.0 mg/kg/injection, schedule: Q01DX010 (ip), vehicle: saline): 0 of 6

SMILES: COc1cc([C@@H]2c3cc4c(cc3[C@H](O)[C@H]3COC(=O)[C@H]23)OCO4)cc(OC)c1OC
- survivor count (dose: 4.0 mg/kg/injection, schedule: Q01DX011 (ip), vehicle: carboxymethylcellulose (CMC)): 0 of 6

SMILES: C[C@H]1C[C@@H]2[C@H]([C@@H](O)C[C@@]3(C)[C@H]2CC[C@]3(O)C(=O)CO)[C@@]2(C)C=CC(=O)C=C12
- survivor count [7]: 1 of 6

SMILES: CC(=O)OCC(=O)[C@@]1(O)CC[C@H]2[C@@H]3C[C@H](C)C4=CC(=O)C=C[C@]4(C)[C@H]3[C@@H](O)C[C@@]21C
- survivor count [7]: 3 of 6

SMILES: Oc1cc(CN(CCCl)CCCl)c(O)cc1CN(CCCl)CCCl
- survivor count (dose: 5.0 mg/kg/injection, schedule: Q01DX010 (ip), vehicle: saline): 1 of 6

SMILES: C1CN1c1nc(N2CC2)nc(N2CC2)n1
- survivor count [8]: 0 of 6

SMILES: CN(C)[C@@H]1C(=O)C(C(N)=O)=C(O)[C@@]2(O)C(=O)C3=C(O)c4c(O)cccc4C[C@H]3C[C@@H]12
- survivor count (dose: 60.0 mg/kg/injection, schedule: Q01DX010 (ip), vehicle: saline): 0 of 6
- survivor count [1]: 0 of 6

SMILES: CS(=O)(=O)OCCN(CCOS(C)(=O)=O)c1ccc(N=O)cc1
- survivor count [8]: 3 of 6
- survivor count (dose: 2.0 mg/kg/injection, schedule: Q01DX010 (ip), vehicle: saline): 0 of 6 and 1 of 6
- survivor count (dose: 4.0 mg/kg/injection, schedule: Q01DX010 (ip), vehicle: saline): 0 of 6

SMILES: CC/C(=C(/CC)c1ccc(O)cc1)c1ccc(O)cc1
- T/C (dose: 12.5 mg/kg/injection, schedule: Q01DX010 (sc), vehicle: steroid suspending solution, evaluated on day 12): 68, 86, 103 % of control
- T/C (dose: 12.5 mg/kg/injection, schedule: Q01DX010 (sc), vehicle: steroid suspending solution, run until all animals had died): 89 % of control
- T/C (dose: 25.0 mg/kg/injection, schedule: Q01DX010 (sc), vehicle: steroid suspending solution, evaluated on day 12): 57, 97, 136 % of control
- T/C (dose: 25.0 mg/kg/injection, schedule: Q01DX010 (sc), vehicle: steroid suspending solution, run until all animals had died): 85 % of control
- T/C [5]: 55, 63, 86 % of control
- T/C (dose: 50.0 mg/kg/injection, schedule: Q01DX010 (sc), vehicle: steroid suspending solution, run until all animals had died): 104 % of control

SMILES: CC(=O)[C@H]1CC[C@H]2[C@@H]3C[C@H](C)C4=CC(=O)CC[C@]4(C)[C@H]3C(=O)C[C@]12C
- T/C (dose: 25.0 mg/kg/injection, schedule: Q03DX004 (sc), vehicle: steroid suspending solution, evaluated on day 12): 137 % of control
- T/C (dose: 100.0 mg/kg/injection, schedule: Q01DX010 (sc), vehicle: steroid suspending solution, evaluated on day 12): 19, 23, 28 % of control (2×)
- T/C (dose: 100.0 mg/kg/injection, schedule: Q01DX010 (sc), vehicle: steroid suspending solution, run until all animals had died): 108 % of control
- survivor count (dose: 200.0 mg/kg/injection, schedule: Q01DX010 (sc), vehicle: steroid suspending solution): 3 of 6
